Values from PubChem BioAssay AID1259299 (Sanger Institute, 2017).

- Test: 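Essential genes and drug-synergistic partners among kinases and colorectal mutation genes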 (primary screen)
- System: human CAR1 colorectal cancer cells
- Reagent: siRNA pool against human genes
- Conditions: anchor drug BYL719 1 µM, cetuximab 5 µg/ml or trametinib 10 nM, or DMSO vehicle alone; exposure length not given
- Measured: 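Mean replicate viability versus non-targeting controls, turned into robust z-scores, plus drug synergy scores for BYL719, cetuximab and trametinib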
- Direction: viability robust z-score, knock-down alone: higher = more viable cells
- Rule for the call: 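Essential when viability robust z-score with knock-down alone (DMSO) is below -3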
- Meaning of the calls: active = essential (knock-down alone); inactive = no change
This is an unselected part of 794 reagents. 9 of all reagents (1.1%) were called active. 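Calls rest on knock-down alone; synergy scores play no part in calls, and no gene passed the synergy cut.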 Further read-outs or replicates are left out here. No sequences are given here. Not stated in the record: the amount of reagent, the time to read-out.

gene	viability robust z-score, knock-down alone	Call
PDK2 (pyruvate dehydrogenase kinase 2)	-1.6	inactive
CLK4 (CDC like kinase 4)	-0.572	inactive
RFK (riboflavin kinase)	-0.0107	inactive
PHKG1 (phosphorylase kinase catalytic subunit gamma 1)	0.717	inactive
ADCK2 (aarF domain containing kinase 2)	0.211	inactive
TP53 (tumor protein p53)	-0.787	inactive
BRD4 (bromodomain containing 4)	0.304	inactive
PDIK1L (PDLIM1 interacting kinase 1 like)	0.789	inactive
CKMT1B (creatine kinase, mitochondrial 1B)	0.789	inactive
PIK3CG	-0.532	inactive
NLK (nemo like kinase)	-0.18	inactive
CSNK1G2 (casein kinase 1 gamma 2)	0.789	inactive
TPK1 (thiamin pyrophosphokinase 1)	-0.469	inactive
NME7 (NME/NM23 family member 7)	0.789	inactive
TLK1 (tousled like kinase 1)	-0.129	inactive
RELA (RELA proto-oncogene, NF-kB subunit)	-1.64	inactive
DGKA (diacylglycerol kinase alpha)	0.19	inactive
FLT3 (fms related receptor tyrosine kinase 3)	-0.0782	inactive
CDKL2 (cyclin dependent kinase like 2)	0.286	inactive
AAK1 (AP2 associated kinase 1)	0.648	inactive
STK31 (serine/threonine kinase 31)	-0.0823	inactive
PINK1 (PTEN induced kinase 1)	0.158	inactive
CDK11A (cyclin dependent kinase 11A)	0.789	inactive
RSKR (ribosomal protein S6 kinase related)	0.789	inactive
PIK3R1 (phosphoinositide-3-kinase regulatory subunit 1)	-0.0234	inactive
PRKAG2 (protein kinase AMP-activated non-catalytic subunit gamma 2)	0.495	inactive
ULK3 (unc-51 like kinase 3)	0.789	inactive
DNMT3A (DNA methyltransferase 3 alpha)	-2.09	inactive
PIP5K1C (phosphatidylinositol-4-phosphate 5-kinase type 1 gamma)	-1.19	inactive
MAP3K11 (mitogen-activated protein kinase kinase kinase 11)	0.789	inactive

The list goes on; the last 7 above are carried over.
gene	viability robust z-score, knock-down alone	Call
RSKR (ribosomal protein S6 kinase related)	0.789	inactive
PIK3R1 (phosphoinositide-3-kinase regulatory subunit 1)	-0.0234	inactive
PRKAG2 (protein kinase AMP-activated non-catalytic subunit gamma 2)	0.495	inactive
ULK3 (unc-51 like kinase 3)	0.789	inactive
DNMT3A (DNA methyltransferase 3 alpha)	-2.09	inactive
PIP5K1C (phosphatidylinositol-4-phosphate 5-kinase type 1 gamma)	-1.19	inactive
MAP3K11 (mitogen-activated protein kinase kinase kinase 11)	0.789	inactive
PTK2 (protein tyrosine kinase 2)	0.643	inactive
ADCK5 (aarF domain containing kinase 5)	0.789	inactive
RPS6KA3 (ribosomal protein S6 kinase A3)	0.789	inactive
PFKFB4 (6-phosphofructo-2-kinase/fructose-2,6-biphosphatase 4)	0.0761	inactive
STAG2 (STAG2 cohesin complex component)	0.789	inactive
ARID1A (AT-rich interaction domain 1A)	0.789	inactive
JAK2 (Janus kinase 2)	-6.02	active
FGR (FGR proto-oncogene, Src family tyrosine kinase)	0.0335	inactive
SRC (SRC proto-oncogene, non-receptor tyrosine kinase)	0.789	inactive
CAMKK2 (calcium/calmodulin dependent protein kinase kinase 2)	0.789	inactive
BRD2 (bromodomain containing 2)	0.537	inactive
PAK1 (p21 (RAC1) activated kinase 1)	-2.03	inactive
PRKAA2 (protein kinase AMP-activated catalytic subunit alpha 2)	0.789	inactive
ELP1 (elongator acetyltransferase complex subunit 1)	0.789	inactive
ALK (ALK receptor tyrosine kinase)	-0.0516	inactive
TP53BP1 (tumor protein p53 binding protein 1)	0.112	inactive
CREBBP (CREB binding lysine acetyltransferase)	0.472	inactive
SIK2 (salt inducible kinase 2)	0.789	inactive
GTF2H1 (general transcription factor IIH subunit 1)	-0.288	inactive
STK11 (serine/threonine kinase 11)	-1.46	inactive
